The results in this text go back to PubChem BioAssay AID328 (DTP/NCI, 2004).

SMILES strings stand for the structures. The list shows only some results of the screen, not a fair sample: it is rich in T/C values a quarter to a half above the control, in often repeated tests (any T/C) and in doses without a T/C. Further doses and runs are listed elsewhere. T/C is the treated group as % of the vehicle group. Some entries give survivors of the animals treated and no T/C: the source files T/C as zero there, which appears to mark a toxic dose or a test without result, not a measured value. Some survivor counts are full or nearly so, which does not show that the dose was tolerated: survival well below the control is almost never listed, so the zero probably covers shortened survival too. Counts of survivors are from the toxicity check (mostly the fifth day) where no day follows; animals may have died later. Schedule codes are those of the source, read here as Q, the interval in days (D) or hours (H), X, the number of doses. Where survival is the endpoint, the PubChem record calls one and a half times the control and up active, and a quarter to a half above the control has no call in these data; cut-offs in other NCI protocols can differ. Some T/C values carry the count of animals alive at the toxicity check (mostly the fifth day); without a count, all were alive then. Some entries hold several experiments; the values are given in rising order.

This test has as its system BDF1 mice, P388 leukemia ip, median survival T/C. Briefly: NCI In Vivo Anticancer Drug Screen. Data for tumor model P388 Leukemia (intraperitoneal) in B6D2F1 (BDF1) mice. The settings on record: T/C endpoint: median survival time, higher T/C = longer survival. Put shortly:
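Vehicle-dosed animals serve as the reference; survival of compound-dosed, tumour-implanted mice is divided by it.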

[1] abbreviates: dose: 20.0 mg/kg/injection, schedule: Q01DX009 (ip), vehicle: saline.
The mark [2] stands for this setting: dose: 40.0 mg/kg/injection, schedule: Q04DX003 (ip), vehicle: saline.
Where [3] appears, read: dose: 50.0 mg/kg/injection, schedule: Q01DX009 (ip), vehicle: saline with Tween-80.
Where [4] appears, read: dose: 100.0 mg/kg/injection, schedule: Q01DX009 (ip), vehicle: saline with Tween-80.
[5] abbreviates: dose: 200.0 mg/kg/injection, schedule: Q01DX009 (ip), vehicle: saline with Tween-80.
Setting [6] is: dose: 100.0 mg/kg/injection, schedule: Q01DX009 (ip), vehicle: saline.
Setting [7] is: dose: 20.0 mg/kg/injection, schedule: Q01DX009 (ip), vehicle: saline with Tween-80.

As for `O=S1(=O)CC(Cl)(Br)C1` (tested in a mixture with another compound), the survivor count (dose: 200.0 mg/kg/injection, schedule: Q01DX009 (ip), vehicle: Klucel (hydroxypropylcellulose) (HPC)) is reported as 4 of 6 and the survivor count (dose: 400.0 mg/kg/injection, schedule: Q01DX009 (ip), vehicle: Klucel (hydroxypropylcellulose) (HPC)) is recorded as 0 of 6.

For `COc1cccc2c1C(=O)c1c(O)c3c(c(O)c1C2=O)C[C@@](O)(/C(C)=N/NC(=O)c1ccc(-c2ccccc2)cc1)C[C@@H]3OC1CC(N)C(O)C(C)O1` (stereo partly specified), the T/C (dose: 1.56 mg/kg/injection, schedule: Q01DX009 (ip), vehicle: water) is 139 % of control; the T/C (dose: 3.12 mg/kg/injection, schedule: Q01DX009 (ip), vehicle: water) is 134 % of control; the T/C (dose: 6.25 mg/kg/injection, schedule: Q01DX009 (ip), vehicle: water) is 139 % of control. The survivor count runs as follows: (dose: 12.5 mg/kg/injection, schedule: Q01DX009 (ip), vehicle: water) 6 of 6; (dose: 25.0 mg/kg/injection, schedule: Q01DX009 (ip), vehicle: water) 6 of 6.

On to `O=C1N[C@@H]([C@H]2CC[C@H](Cl)CN2)C(=O)N[C@H]1[C@H]1CC[C@H](Cl)CN1`, for which the T/C is, setting by setting: (dose: 0.05 mg/kg/injection, schedule: Q01DX010 (ip), vehicle: saline) 136 % of control; (dose: 1.25 mg/kg/injection, schedule: Q01DX001 (ip), vehicle: saline) 140 % of control; (dose: 4.4 mg/kg/injection, schedule: Q01DX001 (ip), vehicle: saline) 142, 158, 172, 213, 237, 241, 272 % of control; (dose: 6.7 mg/kg/injection, schedule: Q01DX001 (ip), vehicle: saline) 200, 206, 245, 255, 262, 283, 285 % of control; (dose: 10.0 mg/kg/injection, schedule: Q01DX001 (ip), vehicle: saline, evaluated on day 30) 272 % of control; (dose: 10.0 mg/kg/injection, schedule: Q01DX001 (ip), vehicle: saline, evaluated on day 60) 194, 232, 302 [9 of 10 alive], 315 [9 of 10 alive], 362, 505, 532 % of control.

As for `CC(C)([NH-])CO.CC(C)([NH-])CO.[Cl][Cd][Cl]`, the survivor count is recorded as 1 of 6 under setting [1]; 0 of 6 (dose: 25.0 mg/kg/injection, schedule: Q04DX003 (ip), vehicle: saline sonified); 0 of 6 under setting [2].

`CCCCCCCCCCCC[N+](C)(C)CC(O)C[N+](C)(C)CCCCCCCCCCCC`: the survivor count reads like this: (dose: 12.5 mg/kg/injection, schedule: Q01DX009 (ip), vehicle: saline) 1 of 6; under setting [3], 0 of 6; under setting [4], 0 of 6; under setting [5], 0 of 6.

As to `O=C(O)c1[nH]c(=O)[nH]c(=O)c1F`, the T/C is 142 % of control (dose: 1.25 mg/kg/injection, schedule: Q01DX010 (ip), vehicle: saline) and 142 % of control (dose: 5.0 mg/kg/injection, schedule: Q01DX010 (ip), vehicle: saline).

In the case of `[O]=[Cr](=[O])([OH])[O][Cr](=[O])(=[O])[OH]`, the survivor count (dose: 25.0 mg/kg/injection, schedule: Q01DX009 (ip), vehicle: saline) was 3 of 6.

For the compound `c1cc[c]([Sn]([c]2ccccc2)([c]2ccccc2)[n]2cnc3ccccc32)cc1`, the survivor count by setting is: (dose: 1.75 mg/kg/injection, schedule: Q01DX009 (ip), vehicle: Klucel (hydroxypropylcellulose) (HPC)) 4 of 6; (dose: 3.5 mg/kg/injection, schedule: Q01DX009 (ip), vehicle: Klucel (hydroxypropylcellulose) (HPC)) 3 of 6; (dose: 14.0 mg/kg/injection, schedule: Q01DX009 (ip), vehicle: Klucel (hydroxypropylcellulose) (HPC)) 3 of 6; (dose: 28.0 mg/kg/injection, schedule: Q01DX009 (ip), vehicle: Klucel (hydroxypropylcellulose) (HPC)) 3 of 6; (dose: 40.0 mg/kg/injection, schedule: Q04DX003 (ip), vehicle: Klucel (hydroxypropylcellulose) (HPC)) 1 of 6.

Take `O=C1CN(N2C(=O)CSC2C23CC4CC(CC(C4)C2)C3)C(=O)CN1c1ccccc1` (stereo unspecified): under setting [5], the survivor count is given as 6 of 6.

In the case of `CC(=O)Oc1ccc(OC(C)=O)c2c1C(=O)C=CC2=O`, the T/C (dose: 0.37 mg/kg/injection, schedule: Q01DX009 (ip), vehicle: Klucel (hydroxypropylcellulose) (HPC)) is 130 % of control [5 of 6 alive] and the T/C (dose: 0.75 mg/kg/injection, schedule: Q01DX009 (ip), vehicle: Klucel (hydroxypropylcellulose) (HPC)) is 142 % of control. Further, the survivor count runs as follows: (dose: 3.12 mg/kg/injection, schedule: Q01DX009 (ip), vehicle: Klucel (hydroxypropylcellulose) (HPC)) 5 of 6; (dose: 12.5 mg/kg/injection, schedule: Q01DX009 (ip), vehicle: Klucel (hydroxypropylcellulose) (HPC)) 6 of 6; (dose: 25.0 mg/kg/injection, schedule: Q01DX009 (ip), vehicle: Klucel (hydroxypropylcellulose) (HPC)) 0 of 6; (dose: 50.0 mg/kg/injection, schedule: Q01DX009 (ip), vehicle: Klucel (hydroxypropylcellulose) (HPC)) 0 of 6.

`OC(CCl)CN1CC[N+]2(CC1)CC[N+]1(CCN(CC(O)CCl)CC1)CC2` (stereo unspecified): the T/C was 144 % of control (dose: 88.0 mg/kg/injection, schedule: Q01DX009 (ip), vehicle: water); 126 % of control (dose: 90.0 mg/kg/injection, schedule: Q01DX009 (ip), vehicle: water); 136 % of control (dose: 100.0 mg/kg/injection, schedule: Q01DX009 (ip), vehicle: water); 148 % of control (dose: 132.0 mg/kg/injection, schedule: Q01DX009 (ip), vehicle: water). Further, the survivor count was 6 of 6 under setting [6]; 6 of 6 (dose: 200.0 mg/kg/injection, schedule: Q01DX009 (ip), vehicle: saline); 6 of 6 (dose: 300.0 mg/kg/injection, schedule: Q01DX009 (ip), vehicle: water); 6 of 6 (dose: 400.0 mg/kg/injection, schedule: Q01DX009 (ip), vehicle: saline); 6 of 6 (dose: 400.0 mg/kg/injection, schedule: Q01DX009 (ip), vehicle: water).

With `OCCN1CCN(CC/C=C2/c3ccccc3Sc3ccc(C(F)(F)F)cc32)CC1`, the T/C runs as follows: (dose: 10.0 mg/kg/injection, schedule: Q04DX003 (ip), vehicle: saline) 125 % of control; (dose: 20.0 mg/kg/injection, schedule: Q04DX003 (ip), vehicle: saline) 134 % of control; under setting [2], 145 % of control. Also, the survivor count reads like this: under setting [1], 6 of 6; (dose: 40.0 mg/kg/injection, schedule: Q01DX009 (ip), vehicle: saline) 3 of 6.

Consider `N#CCC(C#N)N1CCOCC1` (stereo unspecified), for which the survivor count is 6 of 6 (dose: 25.0 mg/kg/injection, schedule: Q01DX009 (ip), vehicle: saline with Tween-80); 6 of 6 under setting [3]; 6 of 6 under setting [4]; 1 of 6 (dose: 200.0 mg/kg/injection, schedule: Q04DX003 (ip), vehicle: saline with Tween-80).

For the compound `O=[N+]([O-])/C=C/c1ccc2ccccc2n1`, the T/C by setting is: (dose: 5.0 mg/kg/injection, schedule: Q01DX009 (ip), vehicle: saline with Tween-80) 129 % of control; (dose: 10.0 mg/kg/injection, schedule: Q01DX009 (ip), vehicle: saline with Tween-80) 125 % of control [5 of 6 alive]; under setting [7], 125 % of control [4 of 6 alive]. The survivor count was 4 of 6 under setting [7]; 1 of 6 (dose: 30.0 mg/kg/injection, schedule: Q01DX009 (ip), vehicle: saline with Tween-80); 0 of 6 (dose: 40.0 mg/kg/injection, schedule: Q01DX009 (ip), vehicle: saline with Tween-80); 4 of 6 (dose: 50.0 mg/kg/injection, schedule: Q04DX003 (ip), vehicle: saline with Tween-80).

Regarding `O=c1[nH][nH]c(=O)n1O`, under setting [6], the survivor count is 6 of 6.
